These are literature values, as cited in patent publication US20240398725A1, “NANOPARTICLES FOR CANCER TREATMENT” (priority 2021, published 2024).

SMILES strings stand for the structures.

The conditions of the data set: cited from earlier work.

With `COc1cc(/C=C/C(=O)CC(=O)/C=C/c2ccc(O)c(OC)c2)ccc1O` [Curcumin, (E,E)-1,7-bis (4 hydroxy-3-methoxyphenyl)-1,6-heptadiene-3,5,-dione], the “solubility in ethanol, alkalis, ketones, acetic acid and chloroform” value (ethanol, alkalis, ketones, acetic acid, chloroform) was “soluble”. For the same molecule, the solubility in water result (water) is given as “insoluble”.
